Measured values from patent publication US8557514B2, “Methods for obtaining bioactive compounds from phytoplankton” (Woods Hole Oceanographic Institution, priority 2008, dated 2013).
Some entries share one result that the patent states for a list of compounds.

Test system: Ehux374 cells
Test: Cell death by SYTOX Green staining (plasma membrane integrity)
Assay type: cell-based, Emiliana huxleyi
Conditions: control treatment (PG)

phosphatidylglycerol [PG] was tested, and the positively stained cells was 5.8-10.2%.
